This note sets out measurements from paper PMC10697842.

Sequences of proteins named here, by UniProt entry; tags and fusion partners are left off.
UniProt P0AE72: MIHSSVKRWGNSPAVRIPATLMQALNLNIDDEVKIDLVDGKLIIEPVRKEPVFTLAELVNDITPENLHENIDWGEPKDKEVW

These are yes or no findings as the source states them, for the method shown. In cells and extracts the contact can be indirect. A yes stands for co-enrichment or nearness to the bait. Other partners may have been found.

In the assay the target is FLAG-MazE (E. coli) (UniProt P0AE72). Nature of the assay: affinity purification with mass spectrometry; lysate of E. coli producing MazF(E24A) and a FLAG-tagged bait; anti-FLAG M2 magnetic beads, 1 h at 4 °C; washed three times with 25 mM Tris-HCl, 150 mM NaCl, 1 mM EDTA, 5% glycerol (no detergent); on-bead trypsin digestion, LC-MS/MS, spectral counts.

“MazF(E24A) (from UniProt P0AE70 1-111) (enzyme)”: the binding result was “binds”.
